Results: doi:10.1101/2024.06.23.600248
No constants are given. Whether binding was seen depends on the method and setting. Binding seen in cells or lysates may run through a third protein. Some entries that bind do so weakly or less than the wild type.

By UniProt entry, the sequences of proteins in these tests, tags left out.
UniProt Q9BQQ3: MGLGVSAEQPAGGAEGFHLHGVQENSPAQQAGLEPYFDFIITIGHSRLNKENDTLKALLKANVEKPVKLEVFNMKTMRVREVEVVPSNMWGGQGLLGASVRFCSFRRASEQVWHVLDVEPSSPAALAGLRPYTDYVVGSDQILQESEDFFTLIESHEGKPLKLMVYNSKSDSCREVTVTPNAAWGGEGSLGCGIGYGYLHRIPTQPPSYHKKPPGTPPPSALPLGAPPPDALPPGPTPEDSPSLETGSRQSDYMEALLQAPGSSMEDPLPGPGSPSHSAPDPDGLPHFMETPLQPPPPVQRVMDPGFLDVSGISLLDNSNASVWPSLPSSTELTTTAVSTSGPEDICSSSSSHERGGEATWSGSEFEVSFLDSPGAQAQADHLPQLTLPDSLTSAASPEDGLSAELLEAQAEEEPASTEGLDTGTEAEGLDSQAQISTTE
UniProt Q9H0U4: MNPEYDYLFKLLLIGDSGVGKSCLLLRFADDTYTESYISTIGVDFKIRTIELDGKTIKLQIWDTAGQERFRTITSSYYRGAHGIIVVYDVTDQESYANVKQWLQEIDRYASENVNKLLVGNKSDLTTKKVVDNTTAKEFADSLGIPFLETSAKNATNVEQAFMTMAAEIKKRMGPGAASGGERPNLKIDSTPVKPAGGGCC

Key:
GRASP65-diHcRED = GRASP65-diHcRED (UniProt Q9BQQ3); test: FRET or BRET
plasmolipin = molecular target: T1, plasmolipin (UniProt Q9Y342); test: FRET or BRET
T1 sequence: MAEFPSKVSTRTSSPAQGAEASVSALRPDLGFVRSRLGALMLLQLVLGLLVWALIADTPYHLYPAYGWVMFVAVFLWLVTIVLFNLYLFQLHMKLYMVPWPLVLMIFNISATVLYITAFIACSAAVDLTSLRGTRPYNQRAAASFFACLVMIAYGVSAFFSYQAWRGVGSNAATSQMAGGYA

Substance | binding (GRASP65-diHcRED) | binding (plasmolipin)
Human Rab1b-Dronpa (from UniProt Q9H0U4 1-201) | binds | –
Rab1b (construct of Supplementary Fig S4) (from UniProt Q9H0U4 1-201) | – | binds
